# Measurements taken from PubChem BioAssay AID2685 (National Center for Advancing Translational Sciences (NCATS), 2010).
# Some of the results follow. The main result of the screen is listed elsewhere. These columns were measured beside it and carry no call. Compounds called inactive in the main read-out are mostly missing here. Potencies come from curve fits of mixed quality, noted in brackets.
# Assay: qHTS Assay for Lipid Storage Modulators in Drosophila S3 Cells;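 for cell number change: cells counted by Cell Tracker Red CMTPX staining in the red channel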
# Settings: BODIPY lipid droplet fluorescence, 18-24 h; for cell number change: measured here: cell count max response, cells fed with added oleic acid
# Outline: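 Drosophila S3 cells got compounds at several concentrations plus oleic acid (400 uM solution). Laser-scanning cytometry with 488 nm excitation read lipid droplets at 500-530 nm and cells at 575-640 nm. Percent activity was relative to 20 uM Triacsin C.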
# [1] = measured here: cell number channel AC50, cells fed with added oleic acid
# [2] = measured here: lipid fluorescence (Fed channel) AC50, cells fed with added oleic acid
SMILES,AC50 [1],cell number change,AC50 [2]
Cc1ccc2[nH]c(=O)c(COC(=O)c3cccs3)cc2c1,"2.59 µM [falling, partial curve]",,
COCCCn1c(SCc2nnc(-c3ccc(OC)c(OC)c3)o2)nc2ccccc2c1=O,,1.92%,"0.82 µM [rising, full curve, poor fit]"
CN(CCC#N)C(=O)CSc1nnc(-c2ccco2)n1N,,-22.7%,"1.46 µM [falling, full curve, poor fit]"
CCOC(=O)Cc1cc(=O)n2[nH]cc(-c3cccc(Br)c3)c2n1,,15.8%,
COc1ccccc1OCCC(=O)OCCN1C(=O)c2ccccc2C1=O,"0.00517 µM [falling, full curve, poor fit]",-5.05%,
Cn1c(SCc2ccccc2Br)nc2ccccc2c1=O,,4.67%,"3.66 µM [rising, full curve]"
COc1ccc(NC(=O)c2ccc(-c3ccc(C(C)=O)cc3)o2)cn1,,-14.9%,"29.1 µM [rising, single point]"
CCOc1ccc(CCNC(=O)CN2C(=O)NC3(CCCCCC3)C2=O)cc1OCC,"6.51 µM [falling, partial curve]",-54.5%,"1.84 µM [falling, full curve, poor fit]"
CN(C)C(=S)Nc1cccc(-c2n[nH]c(=S)o2)c1,"29.1 µM [falling, single point]",-49.5%,
CC(=O)Nc1nc(-c2cccc3ccccc23)cs1,,22.8%,"0.116 µM [rising, full curve, poor fit]"
CCC(C)NC(=O)[C@H](CSCc1ccccc1)N1Cc2ccccc2C1=O (some centres not stated),,18.7%,"0.13 µM [falling, full curve, poor fit]"
CSCCC(NS(=O)(=O)c1cccc(C(F)(F)F)c1)C(=O)N(C)Cc1ccc2c(c1)OCCO2 (configuration not stated),,-34.7%,"5.8 µM [falling, full curve, poor fit]"
Cc1ccccc1CNC(=O)c1ccc2nc(N3CCOCC3)sc2c1,,12.6%,
c1ccc2nc3c(nc2c1)c1ccccc1n3CCN1CCOCC1,,,"0.461 µM [rising, partial curve, poor fit]"
CN(C(=O)c1ccccn1)C1(C(=O)NC2CCCCC2)CCCCC1,,0.992%,"0.231 µM [falling, full curve]"
CCOc1ccc2nc(SCC(=O)N(CC(C)C)c3c(N)n(Cc4ccccc4)c(=O)[nH]c3=O)[nH]c2c1,,25.4%,"0.58 µM [rising, full curve, poor fit]"
Cc1ccc(C)c(OCc2cc(C(=O)N3CCc4sccc4C3)no2)c1,,-36.1%,"5.8 µM [falling, full curve]"
CCOC(=O)CCNC(=O)N1CCCC(CNS(=O)(=O)Cc2ccccc2)C1 (configuration not stated),,-24.1%,"29.1 µM [falling, single point]"
COc1ccc(OCC(=O)Nc2cc(-c3nn(C)c(=O)c4ccccc34)ccc2OC)cc1,"18.4 µM [falling, single point]",-46.2%,"23.1 µM [falling, single point]"
Cc1c(OCC(=O)NCCCN2CCCC2=O)ccc2c3c(c(=O)oc12)CCCC3,,,"5.17 µM [falling, partial curve]"

# Part of the list above, reformatted.
SMILES | AC50 [1] | cell number change | AC50 [2]
Cn1c(SCc2ccccc2Br)nc2ccccc2c1=O |  | 4.67% | 3.66 µM [rising, full curve]
CN(C)C(=S)Nc1cccc(-c2n[nH]c(=S)o2)c1 | 29.1 µM [falling, single point] | -49.5% | 
Cc1ccccc1CNC(=O)c1ccc2nc(N3CCOCC3)sc2c1 |  | 12.6% | 

# Reformatted with bars between the fields: part of the list above
SMILES | AC50 [1] | cell number change | AC50 [2]
CSCCC(NS(=O)(=O)c1cccc(C(F)(F)F)c1)C(=O)N(C)Cc1ccc2c(c1)OCCO2 (configuration not stated) |  | -34.7% | 5.8 µM [falling, full curve, poor fit]
Cc1ccccc1CNC(=O)c1ccc2nc(N3CCOCC3)sc2c1 |  | 12.6% | 

# Remaining list, next part:

SMILES,AC50 [1],cell number change,AC50 [2]
CN(C(=O)c1cccc(N2C(=O)C3CC=CCC3C2=O)c1)C1CCCCC1 (configuration not stated),,-1.12%,
Cc1ccccc1OCCSc1nc(N(C)C)nc(N(C)C)n1,"20.6 µM [rising, single point]",72.7%,"5.8 µM [rising, partial curve]"
COc1cccc(CNc2ncc(Br)cc2Br)c1O,"10.3 µM [falling, partial curve, poor fit]",-37.7%,
COc1ccc(C(=O)c2coc3ccc(OC(C)=O)cc23)cc1,,18.1%,"32.6 µM [rising, single point]"
O=[N+]([O-])c1cccc(N/N=C/c2ccc(N3CCOCC3)cc2)c1,,-23%,"29.1 µM [falling, single point]"
COc1ccc(CNCc2cc(Cl)ccc2O)cc1,,20.9%,"2.91 µM [rising, partial curve]"
COC(C[C@@H](O)C[C@H](O)[C@@H](C)OCc1ccccc1)OC,,,"29.1 µM [falling, single point]"
CCOC(=O)N1CCN(C(=O)COC(=O)c2cccc(C)c2[N+](=O)[O-])CC1,,-7.38%,"32.6 µM [falling, single point]"
Cc1occc1-c1nnc(SCC(=O)N(C)C)o1,"25.9 µM [rising, partial curve, poor fit]",93.5%,"29.1 µM [falling, single point]"
CCc1cc(=O)[nH]c(SCc2ccc(C)cc2)n1,"25.9 µM [falling, partial curve]",-99.4%,"4.11 µM [falling, partial curve]"
CCCCOc1ccccc1C1NC(=O)CCC1[N+](=O)[O-] (configuration not stated),,17.5%,"8.2 µM [rising, partial curve]"
COCCCNC(=O)CCCN1C(=O)c2cccnc2Sc2ccccc21,,-14.9%,"6.51 µM [rising, single point]"
CCNC(=S)/N=C(/Nc1ccccc1)Nc1nc(C)cc(C)n1,,-13.1%,"1.64 µM [rising, partial curve, poor fit]"
C=CCN1C(=O)OC2(CCCCC2)C1(C)O (configuration not stated),,-29%,"3.66 µM [falling, partial curve]"
O=C(Nc1ccc(CN2CCOCC2)cc1)c1ccc(-c2ccc(Br)cc2)o1,,-13.9%,"0.58 µM [rising, single point]"
COc1ccc(NC(=S)Nc2ccccn2)c(OC)c1,,,"2.59 µM [rising, partial curve]"
Cc1ccc(S(=O)(=O)Oc2ccc(/C=N/NC(=O)c3nn(C)cc3[N+](=O)[O-])cc2)cc1,"0.731 µM [falling, partial curve, poor fit]",-18.3%,"0.731 µM [falling, single point]"
CN(C)C(=O)C(=O)c1cccn1-c1ccccc1C#N,"0.13 µM [falling, full curve, poor fit]",7.39%,"25.9 µM [falling, partial curve]"
O=C(C[n+]1ccccc1)Nc1ccc(Cl)c([N+](=O)[O-])c1,,6.29%,"0.116 µM [rising, full curve, poor fit]"
O=C(NC(=S)N1CCc2ccccc21)c1ccc(Br)o1,"29.1 µM [rising, single point]",98.5%,

SMILES,AC50 [1],cell number change,AC50 [2]
O=C(Nc1ccc2c(c1)OCO2)C1CC(=O)N(c2ccc3c(c2)OCCO3)C1 (configuration not stated),"13 µM [rising, partial curve, poor fit]",88.2%,"20.6 µM [rising, partial curve]"
Cn1c(CNC(=O)CNS(=O)(=O)c2ccc(F)cc2F)cc(=O)n(C)c1=O,,23.7%,"29.1 µM [rising, single point]"
C=C(C)C1CC=C(C)/C(=N/NC(=O)COc2ccc(C)cc2)C1 (configuration not stated),"3.26 µM [falling, full curve]",-39.8%,"3.26 µM [falling, full curve]"
Cc1ccc(CNC(=O)COc2ccccc2-c2ccccc2)cc1,,25.3%,"20.6 µM [rising, single point]"
COc1ccc([C@H]2CC(=O)C=C(c3ccc4ccn(C)c4c3)C2)cc1,"0.13 µM [falling, full curve, poor fit]",-16.3%,
COc1cccc(C2/C(=C(/O)c3ccncc3)C(=O)C(=O)N2CCCN(C)C)c1 (configuration not stated),,,"0.0259 µM [falling, full curve, poor fit]"
CCOc1cc(C)cc2oc(=O)cc(-c3ccccc3)c12,,3%,"29.1 µM [rising, single point]"
CCOc1ccc(NC(=S)NC(C)C(c2ccccc2)N2CCN(C)CC2)cc1 (configuration not stated),"0.0058 µM [falling, full curve, poor fit]",-34.9%,"0.00461 µM [falling, full curve, poor fit]"
CN1C(=O)N(C)C(c2ccccc2Cl)C2=C1CC(C)(C)CC2=O (configuration not stated),,-10.5%,
CC1CCCCN1C(=O)c1ccc(COc2ccc([N+](=O)[O-])cc2)o1 (configuration not stated),,-2.19%,"13 µM [rising, partial curve, poor fit]"
COc1ccc(C)cc1-n1nc2ccccc2n1,,-42.7%,
O=C(Nc1cccc(Cl)c1)Nc1csc([N+](=O)[O-])c1,"7.31 µM [falling, partial curve]",-61.4%,"13 µM [falling, partial curve]"
CC1=NC(Nc2nc(C)c3ccccc3n2)=NC(C)(C)C1,"2.06 µM [rising, single point]",22.6%,"3.26 µM [rising, partial curve]"
CCOC(=O)c1sc(=NC(=O)c2cc(OC)c(OC)c(OC)c2)n(C)c1C,"0.58 µM [falling, single point]",,
Cc1ncc(CO)c(CNc2ccc(Oc3ccccc3)cc2)c1O,,-16.2%,
CC(=O)c1c(C)[nH]c(C(=O)N2CCc3ccccc32)c1C,,14.4%,"3.26 µM [rising, partial curve]"
CCOC(=O)CN(Cc1ccc(OC)c(OC)c1)S(=O)(=O)c1ccc(OC)cc1,"1.64 µM [rising, full curve]",68.2%,"1.64 µM [rising, full curve]"
N#Cc1cnn(Cc2ccc(Cl)cc2)c1N,,,"6.51 µM [rising, single point]"
Cc1ccc(NC(=S)N(CCCN2CCC(C)CC2)Cc2ccco2)cc1C,,18.4%,"18.4 µM [rising, single point]"
